Measurements as given in patent publication US20100076060.
Construct, isoform or probe ends are uncertain for at least one entry.

Amino acid sequences for entries named in this document (tags omitted). Residues count along the entry.
UniProt P47741, 20-211: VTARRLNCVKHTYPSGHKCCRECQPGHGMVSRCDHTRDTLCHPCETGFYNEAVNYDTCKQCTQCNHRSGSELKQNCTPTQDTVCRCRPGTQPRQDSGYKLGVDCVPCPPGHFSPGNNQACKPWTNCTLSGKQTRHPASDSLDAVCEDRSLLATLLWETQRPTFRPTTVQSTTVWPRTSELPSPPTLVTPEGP

Target: OX40 (CD134) (Mus musculus) (UniProt P47741)
Test: activity in cells
Settings: 2'-F pyrimidines, 2'-OH purines; DNA linker with 18 carbon spacer between two copies of SEQ 91; 66 nM dimer increased proliferation of SEB-stimulated mouse lymph node T cells; protein on the cell surface; variant of OX40 aptamer SEQ 77

GGGGAAUUCUAAUACGACUCACUAUAGGGAGGACGAUGCGGCAGUCUGCAUCGUAGGAAUCGCCACCGUAUACUUUCCCACCAGACGACUCGCUGAGGAUCCGAGA / TCTCGGATCCTCAGCGAGT [OX40 aptamer dimer SEQ 77]
functional effect of the aptamer: active
